These results are taken from patent US20120065228A1, “COMPOSITIONS AND METHODS FOR TREATING, CONTROLLING, REDUCING, OR AMELIORATING OCULAR INFLAMMATORY WITH LOWER RISK OF INCREASED INTRAOCULAR PRESSURE” (priority 2007, published 2012).

The subject of this data set is Myeloperoxidase (MPO). The experiment in a line: Myeloperoxidase (MPO) activity in iris-ciliary body, rabbit paracentesis model. Type of data set: in vivo. The settings on record: individual eyes. The method, then:
Each rabbit was placed in a restraint device and tagged with the alphanumeric code. The formulations were instilled (50 μl) into the conjunctival sac of both eyes 180, 120, 90 and 30 min before the first paracentesis; then 15, 30, 90 min after the first paracentesis. To perform the first paracentesis the animals were anaesthetized by intravenous injection of 5 mg/kg Zoletil® (Virbac; 2.5 mg/kg tiletamine HCl and 2.5 mg/kg zolazepam HCl) and one drop of local anesthetic (Novesina®, Novartis) was administered to the eye. Anterior chamber paracentesis was performed with a 26 G needle attached to a tuberculin syringe; the needle was introduced into the anterior chamber through the cornea, taking care not to damage the tissues. Two hours after the ® first paracentesis, the animals were sacrificed with 0.4 ml Tanax® (Intervet International B.V.) and the second paracentesis was performed. About 100 μl of aqueous humor were removed at the second paracentesis. Aqueous humor was immediately split in four aliquots and stored at −80° C. until analysis. Then both eyes were enucleated and the iris-ciliary body was carefully excised, placed in polypropylene tubes, and stored at −80° C. until analysis.
The activity of MPO was measured as previously described by Williams et al. The iris-ciliary bodies were carefully dried, weighed and immersed in 1 ml of hexa-decyl-trimethyl-ammonium bromide solution. Then, the samples were sonicated for 10 sec on ice by a ultrasound homogenizer (HD 2070, Bandelin electronic), freeze-thawed three times, sonicated for 10 sec and centrifuged at 14,000 g for 10 min to remove cellular debris. An aliquot of the supernatant (40-200 μl) was diluted to 3 ml with the o-dianisidine 2HCl/H2O2 solution. The change in absorbance at 460 nm was continuously monitored for 5 min by a spectrophotometer (UV/Vis Spectrometer Lambda EZ 201; Perkin Elmer). The slope of the line (Δ/min) was determined for each sample and used to calculate the number of units of MPO in the tissue as follows:
were ε=11.3 mM^−1. Values were expressed as units of MPO/g of tissue.
Pupillary diameter, PGE2, protein, PMN, and MPO were expressed as mean±SEM. Statistical analysis was performed using one way ANOVA followed by a Newman-Keuls post hoc test. Clinical score was expressed as % of eyes and the statistical analysis was performed using Kruskal-Wallis followed by a Dunn post hoc test. P<0.05 was considered statistically significant in both cases. Prism 4 software (GraphPad Software, Inc.) was used for the analysis and graphs.

Where “and” joins values, the source holds several entries; their conditions need not be identical. Equal values may be shown once.

Turning to `Cc1ccc2c(NCC(O)(CC(C)(C)c3cc(F)cc4c3OCC4)C(F)(F)F)cccc2n1` (centres unmarked) [BOL-303242-X], the “Δ/min (mean of the slope of the line recorded every 15 sec for 5 min)” value (0.1% BOL, 100 μl supernatant aliquot diluted to 3 ml, listed as BOL) was 0.051 and 0.042 (2×) and 0.045 and 0.050 and 0.031 (2×) and 0.036; the “Δ/min (mean of the slope of the line recorded every 15 sec for 5 min)” value (0.5% BOL, 100 μl supernatant aliquot diluted to 3 ml, listed as BOL) was 0.044 and 0.040 and 0.031 and 0.049 and 0.033 and 0.034 and 0.022 and 0.026; the “Δ/min (mean of the slope of the line recorded every 15 sec for 5 min)” value (1% BOL, 100 μl supernatant aliquot diluted to 3 ml, listed as BOL) was 0.024 and 0.033 and 0.017 and 0.018 (2×) and 0.016 and 0.052 and 0.013. Regarding `CC(C(=O)O)c1ccc(-c2ccccc2)c(F)c1` (centres unmarked) [F, flurbiprofen, reference compound], where the note is “0.03% F, 100 μl supernatant aliquot diluted to 3 ml”, the “Δ/min (mean of the slope of the line recorded every 15 sec for 5 min)” value is 0.049 and 0.082 and 0.013 and 0.031 and 0.038 and 0.027 and 0.033 and 0.061. Take `CCOC(=O)O[C@]1(C(=O)OCCl)CC[C@H]2[C@@H]3CCC4=CC(=O)C=C[C@]4(C)[C@H]3[C@@H](O)C[C@@]21C` [LE, loteprednol etabonate, reference compound]: the “Δ/min (mean of the slope of the line recorded every 15 sec for 5 min)” value (0.5% LE, 200 μl supernatant aliquot diluted to 3 ml) is 0.026 and 0.053 and 0.067 and 0.055 and 0.076 and 0.096.
